Results published in PubChem BioAssay AID292 (DTP/NCI, 2004).
The list does not hold the whole screen: it gathers tests that were run many times, whatever their T/C, doses with no T/C, and many T/C values between a quarter and a half above the control. Other doses and runs of a compound stand elsewhere. T/C is the treated group as % of the vehicle group. Some doses have a count of surviving animals in place of a T/C: the source files T/C as zero there, which appears to mark a toxic dose or a test without result, not a measured value. Some survivor counts are full or nearly so, which does not show that the dose was tolerated: survival well below the control is almost never listed, so the zero probably covers shortened survival too. Counts of survivors are from the toxicity check (mostly the fifth day) where no day follows; animals may have died later. Schedules are NCI's codes, taken here to give the interval after Q, in days (D) or hours (H), and the number of doses after X. Some entries hold several experiments; the values are given in rising order. Where survival is the endpoint, the PubChem record calls one and a half times the control and up active, and a quarter to a half above the control has no call in these data; cut-offs in other NCI protocols can differ. Some T/C values carry the count of animals alive at the toxicity check (mostly the fifth day); where none is given, no animal had died by that day. Additions like (4×) stand for listed records that agree.

Test system: B6C3F1 mice, ip Sarcoma M5076, median survival T/C
Test: NCI In Vivo Anticancer Drug Screen. Data for tumor model Sarcoma M5076 (intraperitoneal) in B6C3F1 mice
Conditions: T/C endpoint: median survival time, higher T/C = longer survival
Procedure, shortened: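 Survival measured in treated (T) and vehicle control (C) mice with transplantable tumour; result given as T divided by C.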

[1] = dose: 120.0 mg/kg/injection, schedule: Q04DX004 (ip), vehicle: saline
[2] = dose: 120.0 mg/kg/injection, schedule: Q04DX005 (ip), vehicle: saline
[3] = dose: 400.0 mg/kg/injection, schedule: Q04DX004 (ip), vehicle: Klucel (hydroxypropylcellulose) (HPC)
[4] = dose: 800.0 mg/kg/injection, schedule: Q04DX004 (ip), vehicle: Klucel (hydroxypropylcellulose) (HPC)
[5] = dose: 300.0 mg/kg/injection, schedule: Q04DX004 (ip), vehicle: saline with Tween-80
[6] = dose: 400.0 mg/kg/injection, schedule: Q04DX004 (ip), vehicle: saline with Tween-80
[7] = dose: 666.67 mg/kg/injection, schedule: Q04DX004 (ip), vehicle: saline with Tween-80
[8] = dose: 800.0 mg/kg/injection, schedule: Q04DX004 (ip), vehicle: saline with Tween-80

What does the source list for O=c1[nH]cc(F)c(=O)[nH]1?
T/C (dose: 15.0 mg/kg/injection, schedule: Q04DX004 (ip), vehicle: saline, evaluated on day 60): 100 and 102 % of control; T/C (dose: 15.0 mg/kg/injection, schedule: Q04DX004 (ip), vehicle: saline, evaluated on day 75): 101, 104, 106 [9 of 10 alive on day 9], 109, 111, 115 % of control; survivor count (dose: 15.0 mg/kg/injection, schedule: Q04DX004 (ip), vehicle: saline): 9 of 10 on day 9; T/C (dose: 15.0 mg/kg/injection, schedule: Q04DX005 (ip), vehicle: saline): 94, 105, 110, 127 % of control; T/C (dose: 30.0 mg/kg/injection, schedule: Q04DX004 (ip), vehicle: saline, evaluated on day 60): 101 and 103 % of control [9 of 10 alive on day 14]; T/C (dose: 30.0 mg/kg/injection, schedule: Q04DX004 (ip), vehicle: saline, evaluated on day 75): 101, 111, 114, 117, 120, 121, 124 % of control; T/C (dose: 30.0 mg/kg/injection, schedule: Q04DX005 (ip), vehicle: saline): 102, 111, 114, 128 % of control; T/C (dose: 50.0 mg/kg/injection, schedule: Q04DX004 (ip), vehicle: saline): 126 and 130 % of control; T/C (dose: 60.0 mg/kg/injection, schedule: Q04DX004 (ip), vehicle: saline, evaluated on day 60): 109 and 110 % of control; T/C (dose: 60.0 mg/kg/injection, schedule: Q04DX004 (ip), vehicle: saline, evaluated on day 75): 100, 102, 116, 120, 126 (2×), 133 % of control; T/C (dose: 60.0 mg/kg/injection, schedule: Q04DX005 (ip), vehicle: saline): 104, 111, 134, 140 % of control; survivor count (dose: 100.0 mg/kg/injection, schedule: Q04DX004 (ip), vehicle: saline): 9 of 10 on day 9 and 10 of 10 on day 9; T/C [1]: 110 and 120 % of control; survivor count [1]: 1 of 10 on day 9, 4 of 10 on day 14, 5 of 10 on day 14, 9 of 10 on day 9, 10 of 10 on day 14, 10 of 10 on day 9; T/C [2]: 147 % of control; survivor count [2]: 4 of 10 on day 9, 9 of 10 on day 9, 10 of 10 on day 9; survivor count (dose: 200.0 mg/kg/injection, schedule: Q04DX004 (ip), vehicle: saline): 0 of 10 on day 9

What does the source list for COc1ccc(Cl)c2c1[nH]c1nc3nc4cc(Cl)ccc4n3nc12?
survivor count (dose: 9.37 mg/kg/injection, schedule: Q04DX004 (ip), vehicle: saline with Tween-80): 10 of 10 on day 14; survivor count (dose: 18.75 mg/kg/injection, schedule: Q04DX004 (ip), vehicle: saline with Tween-80): 10 of 10 on day 14; survivor count (dose: 37.5 mg/kg/injection, schedule: Q04DX004 (ip), vehicle: saline with Tween-80): 10 of 10 on day 14

How did the survivor count [3] turn out when COc1ccccc1NC(=O)C1C(=O)C(=O)N(c2ccccc2OC)C1=O (centres undefined) was run?
The survivor count was 9 of 10 on day 14.

What about the survivor count [4] of the same compound?
The survivor count was 7 of 10 on day 14.

[CH3][Sn]([CH3])([Cl])[c]1cc[c]([Sn]([CH3])([CH3])[Cl])cc1 was tested. Which survivor count (dose: 5.76 mg/kg/injection, schedule: Q04DX004 (ip), vehicle: saline) did it give?
The survivor count was 3 of 9 on day 14.

And the survivor count (dose: 9.6 mg/kg/injection, schedule: Q04DX004 (ip), vehicle: saline)?
The survivor count was 0 of 10 on day 14.

And the survivor count (dose: 16.0 mg/kg/injection, schedule: Q04DX004 (ip), vehicle: saline)?
Its survivor count is 0 of 10 on day 14.

And the survivor count (dose: 26.67 mg/kg/injection, schedule: Q04DX004 (ip), vehicle: saline)?
The survivor count was 0 of 10 on day 14.

What about the survivor count (dose: 44.45 mg/kg/injection, schedule: Q04DX004 (ip), vehicle: saline) of the same compound?
Its survivor count is 0 of 10 on day 14.

How did the survivor count [4] turn out when COc1cc(N2C(=O)C(=O)C(C(C)=O)C2=O)c(OC)cc1Cl (centres undefined) was run?
The survivor count was 0 of 10 on day 14.

Which survivor count (dose: 160.0 mg/kg/injection, schedule: Q04DX005 (ip), vehicle: saline) does the source give for CS(=O)(=O)OCCCNCCCOS(C)(=O)=O here?
The survivor count was 4 of 8 on day 17.

Which T/C (dose: 200.0 micrograms/kg/injection, schedule: Q04DX004 (ip), vehicle: saline with Tween-80) does the source give for CSC1SCC2C(=O)N(C)C(C(C)C)C(=O)OCC(NC(=O)c3cnc4ccccc4n3)C(=O)NC(C)C(=O)N(C)C1C(=O)N(C)C(C(C)C)C(=O)OCC(NC(=O)c1cnc3ccccc3n1)C(=O)NC(C)C(=O)N2C (centres undefined) here?
The T/C was 127 % of control.

And the T/C (dose: 300.0 micrograms/kg/injection, schedule: Q04DX004 (ip), vehicle: saline with Tween-80)?
Its T/C is 127 % of control [9 of 10 alive on day 14].

And the survivor count (dose: 400.0 micrograms/kg/injection, schedule: Q04DX004 (ip), vehicle: saline with Tween-80)?
The survivor count was 6 of 10 on day 14.

Which T/C (dose: 25.0 mg/kg/injection, schedule: Q04DX004 (ip), vehicle: Klucel + Tween-80) does the source give for N=C(N)c1nn(C2OC(CO)C(O)C2O)c2nc[nH]c(=O)c12 (centres undefined) here?
The T/C was 126 % of control.

What about the T/C (dose: 50.0 mg/kg/injection, schedule: Q04DX004 (ip), vehicle: Klucel + Tween-80) of the same compound?
Its T/C is 135 % of control.

What about the survivor count (dose: 100.0 mg/kg/injection, schedule: Q04DX004 (ip), vehicle: Klucel + Tween-80) of the same compound?
The survivor count was 3 of 10 on day 14.

And the survivor count (dose: 138.88 mg/kg/injection, schedule: Q04DX004 (ip), vehicle: Klucel + Tween-80)?
Its survivor count is 1 of 10 on day 14.

And the survivor count (dose: 138.89 mg/kg/injection, schedule: Q04DX004 (ip), vehicle: other)?
Its survivor count is 4 of 10 on day 14.

With O=c1[nH]cnc2c1cnn2CN1CCOCC1 as the compound, how does the survivor count [3] read?
Its survivor count is 4 of 10 on day 14.

What does the source list for O=C(O)c1cc(C(=O)O)c(C(=O)O)cc1C(=O)O.[NH2-].[NH2-].[NH2-].[NH2-].[Pt+2].[Pt+2]?
T/C (dose: 16.0 mg/kg/injection, schedule: Q04DX004 (ip), vehicle: water): 138 and 142 % of control; survivor count (dose: 64.0 mg/kg/injection, schedule: Q04DX004 (ip), vehicle: water): 4 of 10 on day 14

How did the survivor count [5] turn out when CCOC(=O)c1cc(-c2ccccc2)c(=O)c(OC)nc1-c1ccccc1 was run?
The survivor count was 2 of 10 on day 14.

How did the T/C (dose: 86.4 mg/kg/injection, schedule: Q04DX004 (ip), vehicle: saline with Tween-80) turn out when Cc1cc2c(C(C)C)c(O)c(O)c(C=NCCO)c2c(O)c1-c1c(C)cc2c(C(C)C)c(O)c(O)c(C=NCCO)c2c1O was run?
Its T/C is 131 % of control.

And the T/C (dose: 240.0 mg/kg/injection, schedule: Q04DX004 (ip), vehicle: saline with Tween-80)?
The T/C was 126 % of control.

And the T/C [6]?
Its T/C is 148 % of control.

What about the T/C [7] of the same compound?
The T/C was 148 % of control.

What about the survivor count [7] of the same compound?
Its survivor count is 3 of 10 on day 14.

With CC(=O)/C(=C\c1ccc(/C=C(\C(C)=O)C(=O)CCN(C)C)cc1)C(=O)CCN(C)C as the compound, how does the survivor count (dose: 100.0 mg/kg/injection, schedule: Q04DX004 (ip), vehicle: saline with Tween-80) read?
Its survivor count is 8 of 8 on day 14.

What about the survivor count (dose: 200.0 mg/kg/injection, schedule: Q04DX004 (ip), vehicle: saline with Tween-80) of the same compound?
Its survivor count is 8 of 8 on day 14.

What about the survivor count [8] of the same compound?
Its survivor count is 2 of 7 on day 14.

For CC[C@](C)(O)C(=O)O[C@H]1C(=O)O[C@@H]2C[C@H]3C(C)=CC(=O)[C@@H](O)[C@]3(C)[C@H]3[C@@]4(O)OC[C@]32[C@@H]1[C@@H](C)[C@H]4O, which survivor count (dose: 0.12 mg/kg/injection, schedule: Q04DX004 (ip), vehicle: saline) is on record?
Its survivor count is 6 of 10 on day 14.

What about the survivor count (dose: 0.24 mg/kg/injection, schedule: Q04DX004 (ip), vehicle: saline) of the same compound?
The survivor count was 3 of 10 on day 14.

What about the survivor count (dose: 0.48 mg/kg/injection, schedule: Q04DX004 (ip), vehicle: saline) of the same compound?
The survivor count was 2 of 10 on day 14.

What about the survivor count (dose: 0.5 mg/kg/injection, schedule: Q04DX004 (ip), vehicle: saline) of the same compound?
Its survivor count is 5 of 10 on day 9.

What about the survivor count (dose: 1.0 mg/kg/injection, schedule: Q04DX004 (ip), vehicle: saline) of the same compound?
The survivor count was 5 of 10 on day 9.

And the survivor count (dose: 2.0 mg/kg/injection, schedule: Q04DX004 (ip), vehicle: saline)?
Its survivor count is 3 of 10 on day 9.

What about the survivor count (dose: 4.0 mg/kg/injection, schedule: Q04DX004 (ip), vehicle: saline) of the same compound?
The survivor count was 3 of 10 on day 9.

COC(=O)Nc1ccc(Cc2ccc(NC(=O)OC)cc2)cc1 was tested. Which T/C [5] did it give?
Its T/C is 140 % of control.

What about the T/C [6] of the same compound?
Its T/C is 149 % of control.

And the survivor count [8]?
Its survivor count is 0 of 10 on day 14.
